Data source: PubChem BioAssay AID1259254 (NCATS, 2017)

- Assay: 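Genome-wide screen for genes that prevent DNA re-replication in cancer cells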 (primary screen)
- Cells: human HCT116 colorectal cancer cells
- Reagents: single siRNA against human genes
- Duration: 3 days
- Detection: 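Imaged Hoechst DNA stain sorts each cell into a cycle phase by DNA amount; per plate, G2 fraction set to 0% for non-targeting and 100% for GMNN siRNA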
- Direction: G2 robust z-score and G2 cells, % of GMNN control: higher = more G2 cells, more excess DNA replication; raw share of cells in G2: higher = larger share of cells with G2 DNA content
- Active means: 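Active siRNAs have a G2 robust z of 5 or more median absolute deviations over the median, which in these data means about 38% or higher of GMNN control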
This is a random part of about 59,000 reagents tested. Over the whole deposit, about 1,550 (2.6%) were called active. 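G2 share is only a proxy for re-replication; each gene was hit by three separate siRNAs, and active genes were retested.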 The raw values are shown without normalisation. The record does not give: the amount of reagent.

target gene	PubChem SID	G2 robust z-score	G2 cells, % of GMNN control	raw share of cells in G2 (%)	activity call
KIFBP	SID160737666	-0.344	0.545	4.62	inactive
KIFBP	SID160737667	1.56	14	9.98	inactive
KIFBP	SID160737668	0.608	7.25	5.83	inactive
TNPO1	SID160776361	0.709	7.95	7.93	inactive
TNPO1	SID160776362	-0.341	0.568	5.9	inactive
TNPO1	SID160776363	0.474	6.3	6.51	inactive
PCYOX1L	SID160734915	-1.13	-5.02	1.37	inactive
PCYOX1L	SID160748433	3.81	29.8	17.5	inactive
PCYOX1L	SID160748434	0.429	5.99	7.29	inactive
ATG4C	SID160752989	0.0949	3.64	6.53	inactive
ATG4C	SID160752990	0.483	6.37	6.89	inactive
ATG4C	SID160752991	-0.00496	2.93	7.03	inactive
CHST12	SID160743710	-0.787	-2.57	3.26	inactive
CHST12	SID160743711	-1.33	-6.37	2.16	inactive
CHST12	SID160743712	-0.743	-2.26	5.44	inactive
CNOT1	SID160735146	-1.32	-6.3	1.43	inactive
CNOT1	SID160735156	-1.22	-5.6	3.49	inactive
CNOT1	SID160735166	-0.957	-3.77	1.76	inactive
ADAMTS1	SID160722377	1.82	15.8	11.1	inactive
ADAMTS1	SID160722378	-0.552	-0.915	4.58	inactive
ADAMTS1	SID160722379	0.54	6.77	6.43	inactive
CDKN2D	SID160741174	-0.932	-3.59	3.68	inactive
CDKN2D	SID160741185	3.66	28.7	15.5	inactive
CDKN2D	SID160741196	-1.14	-5.02	2.37	inactive
NXPE4	SID160742255	-0.154	1.89	4.28	inactive
NXPE4	SID160742256	-0.659	-1.67	3.57	inactive
NXPE4	SID160742258	2.87	23.1	10.8	inactive
MRM3	SID160743144	0.197	4.35	8.34	inactive
MRM3	SID160743145	4.59	35.2	17.1	inactive
MRM3	SID160743146	-0.874	-3.18	3.01	inactive
CIAPIN1	SID160745506	-0.668	-1.73	3.66	inactive
CIAPIN1	SID160745507	-0.599	-1.25	3.86	inactive
CIAPIN1	SID160745508	2.08	17.6	8.61	inactive
TCF25	SID160732733	0.274	4.9	5.01	inactive
TCF25	SID160734337	-1.31	-6.22	2.55	inactive
TCF25	SID160734356	0.634	7.43	7.2	inactive
PPIH	SID160728490	-1.22	-5.63	2.02	inactive
PPIH	SID160728491	0.723	8.06	9.2	inactive
PPIH	SID160730439	4.41	34	19.9	inactive
MYOCD	SID160754536	0.677	7.73	5.75	inactive
MYOCD	SID160754537	0.29	5	4.9	inactive
MYOCD	SID160754538	-0.221	1.41	4.02	inactive
IFT70B	SID160759016	1.31	12.2	7.92	inactive
IFT70B	SID160759017	0.185	4.27	4.23	inactive
IFT70B	SID160759018	-0.468	-0.326	2.95	inactive
NR4A2	SID160778309	1.62	14.3	10.5	inactive
NR4A2	SID160778310	-0.522	-0.702	4.31	inactive
NR4A2	SID160778311	-0.116	2.15	4.67	inactive
PHKG2	SID160714264	-0.629	-1.46	5.13	inactive
PHKG2	SID160714265	-1.16	-5.18	3.67	inactive
PHKG2	SID160714266	1.56	13.9	8.93	inactive
GUCY2EP	SID160731182	-0.736	-2.21	4.95	inactive
GUCY2EP	SID160766454	-1.56	-7.97	1.37	inactive
GUCY2EP	SID160766455	2.53	20.8	13.1	inactive
C2orf80	SID160733225	0.836	8.85	8.43	inactive
C2orf80	SID160766080	-0.262	1.12	4.16	inactive
C2orf80	SID160766081	-0.519	-0.682	3.11	inactive
PIGL	SID160722326	-0.707	-2.01	2.51	inactive
PIGL	SID160722327	0.677	7.73	7.89	inactive
PIGL	SID160722328	-1.01	-4.11	3.65	inactive
SMG1	SID160730821	-0.217	1.44	4.14	inactive
SMG1	SID160735327	-1.55	-7.96	3.11	inactive
SMG1	SID160735328	0.0194	3.1	6.32	inactive
MRTFA	SID160731603	-0.572	-1.06	5.43	inactive
MRTFA	SID160746360	-0.168	1.79	3.42	inactive
MRTFA	SID160746361	-0.464	-0.299	3.54	inactive
PARP12	SID160747919	-0.734	-2.2	3.43	inactive
PARP12	SID160747920	-0.0558	2.57	5.26	inactive
PARP12	SID160747921	-1.1	-4.79	3.66	inactive

3 entries from above in another layout.
KIFBP [SID160737667]
- G2 robust z-score: 1.56
- G2 cells, % of GMNN control: 14
- raw share of cells in G2 (%): 9.98
- activity call: inactive

KIFBP [SID160737668]
- G2 robust z-score: 0.608
- G2 cells, % of GMNN control: 7.25
- raw share of cells in G2 (%): 5.83
- activity call: inactive

TNPO1 [SID160776361]
- G2 robust z-score: 0.709
- G2 cells, % of GMNN control: 7.95
- raw share of cells in G2 (%): 7.93
- activity call: inactive
